Here are results for 60 molecules from PubChem BioAssay AID1794844 (National Center for Advancing Translational Sciences (NCATS), 2023).

Sequences of proteins named here, by UniProt entry; tags and fusion partners are left off. A change or cut given only in a name is not applied to a line headed by its entry.
UniProt C7C422: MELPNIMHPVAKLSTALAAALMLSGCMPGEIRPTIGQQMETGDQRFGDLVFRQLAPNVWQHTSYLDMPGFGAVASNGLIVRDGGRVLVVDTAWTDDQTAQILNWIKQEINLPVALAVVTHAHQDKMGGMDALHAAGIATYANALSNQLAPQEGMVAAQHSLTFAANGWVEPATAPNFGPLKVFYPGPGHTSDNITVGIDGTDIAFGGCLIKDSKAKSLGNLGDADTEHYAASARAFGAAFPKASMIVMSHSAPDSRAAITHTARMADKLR

Hit rate of the full screen: of about 2,800 compounds, fewer than 10 were called active. Another 7% or so got no clear call; they are omitted. Calls follow the shape of the dose curve; as a rule, active = well fitted inhibition curve with a large enough effect; inconclusive = small, poorly fitted or top-dose-only effect; inactive = no such curve, though single readings can be large or run the other way. This is one part of the list.

For this assay, the target named is Metallo-beta-lactamase type 2 (Klebsiella pneumoniae) (UniProt C7C422). The assay can be described thus: qHTS to identify inhibitors of the New Delhi Metallo-beta-lactamase (NDM): Nitrocefin screen against the machine-based learning selections. Also: % of control where 0% means no effect. The following applies: NDM-1 enzyme, nitrocefin hydrolysis, absorbance 485 nm; activity, negative = inhibition: at the top concentration. The procedure, abridged: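 NDM-1 (2 nM final) in 50 mM HEPES pH 7.0, 1 uM Zn2SO4, 0.01% Tween20 was preincubated with compounds for >30 min. Nitrocefin (16.7 uM final) was read at 485 nm after 15 min, and meropenem (50 uM final) at 300 nm after 30 min.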
In general terms: Quantitative high-throughput screening tests each substance at several concentrations.
As for `O=C1C[C@@H]2CCN(C(=O)Nc3ccccc3)C[C@@H]2CCN1CCc1cnc[nH]1`, the “activity, negative = inhibition” value was inactive: 14.6% [at 57.5 µM].
`O=C1[C@@H]2C[C@@H](O)CN2C2(CN(C3Cc4ccccc4C3)C2)C(=O)N1Cc1ccccc1F`: the “activity, negative = inhibition” value was inactive: -6.47%.
For `Cc1nccc(-c2ccccc2)c1C(=O)N[C@H]1C[C@@H]2OCC[C@H]12`, the “activity, negative = inhibition” value is inactive: 1.16%.
On to `C[C@@H](NS(=O)(=O)c1ccccc1)c1onc(-c2cccnc2)c1C(=O)O`, for which the “activity, negative = inhibition” value is inactive: -7.4% [at 57.5 µM].
With `O=C(NC[C@H]1OC[C@@H](NC2CCC(F)(F)CC2)[C@@H]1O)C1CC1` the figure was inactive: -3.47% [at 57.5 µM]; with `COc1cccc(CN2CC3(C2)C(=O)N(Cc2ccccc2F)C(=O)[C@@H]2C[C@@H](O)CN23)c1`, inactive: 1.92%; with `COc1ccc(C2(C(=O)N3CCCC(Cc4nc(C5CCOCC5)no4)C3)CC2)cc1` (stereo not given), inactive: 0.154%.
In the case of `CC(C)(C)C(=O)N1C[C@H]2OC(=O)N(CCc3cccc(Cl)c3)[C@H]2C1` it was inactive: 8.93%.
In the case of `Cc1ccc2c(c1)nc1n2[C@@H](CNCc2ccc(S(C)(=O)=O)cc2)COC1` it was inactive: -0.905% [at 57.5 µM]; in that of `CC(Cc1ccc2c(c1)OCO2)CN1CCC(CO)(CN2CCCC2)CC1` (stereo not given), inactive: -4.78%; in that of `Cn1ncc(N2CCC(NC(=O)c3ccsc3)CC2)cc1=O`, inactive: -4.35%.
Take `O=C(CC[C@@H]1CNC(=O)[C@@H]2C[C@H](NCc3ccc(F)cc3)CN12)NCc1ccc(F)cc1`: the “activity, negative = inhibition” value was inactive: 2%.
With `COc1ccc(-c2ccnc3nc(CCc4ccccc4)nn23)c(F)c1` the figure was inactive: 1.48%; with `OCc1ccnc(-c2ccc(-c3ccn[nH]3)cc2)c1`, inactive: -20.6%.
Turning to `COCCNC(=O)C[C@@H]1C[C@H]2O[C@H](CNC(=O)N3CCOCC3)[C@@H](O)[C@H]2O1`, the “activity, negative = inhibition” value was inactive: 3.61% [at 57.5 µM].
With `C[C@]1(CO)[C@H]2Cc3sc(NC(=O)c4ccc(F)cc4)nc3[C@@H](CC(=O)Nc3ccccc3)[C@]2(C)CC[C@H]1O` the figure was inactive: -3.79%; with `CS(=O)(=O)N1CCCC(c2nc(-c3ccccc3)no2)CCNC(=O)CC1` (stereo not given), inactive: -0.831%; with `NC(=O)c1ccc(Nc2cnc3ccc(-c4ccccc4)nn23)cc1`, inactive: 2.31% [at 57.5 µM].
Turning to `O=C(NCc1cccnc1)[C@@H]1C[C@@H](c2ccc(F)cc2)N(Cc2ccccc2)C1`, the “activity, negative = inhibition” value was inactive: 0.701% [at 57.5 µM].
Take `CCn1ccc2cc(C(=O)N3CCC(=O)N(CC4CC4)C(C(C)C)C3)ccc21` (stereo not given): the “activity, negative = inhibition” value was inactive: -3.93%.
Regarding `Fc1ccc(-c2ccc3ncc(Nc4ccccn4)n3n2)cc1`, the “activity, negative = inhibition” value was inactive: 10.1% [at 57.5 µM].
Turning to `CN1CCC(OCCCn2cnc3cn(C)nc3c2=O)CC1`, the “activity, negative = inhibition” value is inactive: -2.98%.
In the case of `Cc1c(CN2C[C@@H](COc3ccccc3)[C@H](C(N)=O)C2)cnn1C` it was inactive: 2.24%; in that of `O=C(NCc1cccnc1)c1ccc2oc(-c3ccc(C(F)(F)F)cc3)nc2c1`, inactive: 1.02%; in that of `CC1(COc2ccccc2)COc2ccc(C(=O)NCCc3ccccn3)cc2N1` (stereo not given), inactive: -11.2% [at 57.5 µM].
Take `CC(=O)Nc1ccc(S(=O)(=O)N[C@H]2CO[C@H]3[C@@H]2OC[C@@H]3n2nnnc2Oc2ccc(-n3ccnc3)cc2)cc1`: the “activity, negative = inhibition” value was inactive: 9.9%.
In the case of `Cc1ccc(NC(=O)N2CCCC(Cn3c(C4CC4)nc4cccnc43)C2)c(C)c1` (stereo not given) it was inactive: -5.5%; in that of `CC(=O)NC1(C)CCCN(Cc2cc(-c3ccccc3)cs2)C1` (stereo not given), inactive: -4.9% [at 57.5 µM].
Take `NCCn1cc(C(=O)NCCS(=O)(=O)N2CCCC2)nn1`: the “activity, negative = inhibition” value was inactive: 3.3%.
Regarding `O=C(N[C@H](Cc1ccncc1)C1CC(O)C1)c1ccc(CO)o1` (stereo not given in full), the “activity, negative = inhibition” value was inactive: 6.76%.
In the case of `CCNC(=O)N1CC[C@@H](CC(=O)O)[C@@H](CC2=NCCc3ccc(C)cc32)C1` it was inactive: -5.95% [at 57.5 µM]; in that of `Cc1cccc(-n2cc(CN3CCN(c4cc(N)nc(N)n4)CC3)cn2)c1`, inactive: 7.37%; in that of `O=C(NC1C[C@H]2CC[C@@H](C1)N2C(=O)c1ccn[nH]1)c1ccncc1` (stereo not given in full), inactive: -1.67%.
Take `CC1=C[C@@H](CO)[C@H](C(C)C)C[C@H]1Cc1nnc(Cc2c[nH]c3ccccc23)o1`: the “activity, negative = inhibition” value is inactive: -10.7% [at 57.5 µM].
For the molecule `CC(C)c1cc(CN(C)Cc2cn[nH]c2-c2ccc(F)cc2)no1`, the “activity, negative = inhibition” value was inactive: -9.64%.
On to `CCc1nc2c(c(-c3ccc(Cl)cc3)n1)CN([S+](=O)([O-])c1ccc(C)cc1)CC2`, for which the “activity, negative = inhibition” value is inactive: -1.15%.
In the case of `O=C([C@@H]1C[C@H](F)CN1C(=O)NC1CCCC1)N1CCc2ccccc2C1` it was inactive: -3.69%; in that of `COC[C@H]1C[C@@H](NC(=O)C2CCOCC2)[C@H](O)[C@@H]1O`, inactive: 26.9% [at 76.7 µM]; in that of `O=C(NC1CCC(n2cnnc2)CC1)c1ccc(Cn2cnnn2)cc1` (stereo not given), inactive: 5.73%.
Consider `O=C(N[C@H]1CCN2C(=O)c3cc(-c4ccc(F)cc4F)ccc3NC(=O)[C@H]12)c1cccs1`, for which the “activity, negative = inhibition” value is inactive: 1.2%.
`COc1ccc2nc([C@H]3CCN(C4CCN(C)CC4)C3)[nH]c2c1`: the “activity, negative = inhibition” value was inactive: 10% [at 57.5 µM].
With `c1cncc(Nc2cc3c(cn2)CN(Cc2cccs2)CCN3)c1` the figure was inactive: 10.4% [at 57.5 µM].
With `CC(=O)c1ccc(NC(=O)N[C@H]2CCN3C(=O)[C@@H](Cc4ccccc4)NC(=O)[C@H]23)cc1`, the “activity, negative = inhibition” value is inactive: -8.78% [at 57.5 µM].
In the case of `COc1ccc(CN2CCC[C@H]2c2nc(-c3cncnc3N)no2)c(O)c1` it was inactive: -3.68% [at 57.5 µM]; in that of `CN(C)[C@H]1CCN(C(=O)Cc2cn(C)c3ccccc23)C[C@H]1CCC(=O)O`, inactive: -6.21%.
With `Cc1ccc(C(=O)N2CC[C@@H]3CN(S(C)(=O)=O)[C@@H]3C2)c(=O)[nH]1` the figure was inactive: 3.71%; with `C[S+](=O)([O-])c1cccc(NC(=O)Cc2c[nH]c3ncc(-c4ccccc4)cc23)c1`, inactive: -6.2% [at 57.5 µM].
Consider `COC(=O)c1ccc(N2C[C@H]3OC(=O)N(CCc4ccc(OC)cc4)[C@H]3C2)nc1`, for which the “activity, negative = inhibition” value is inactive: 0.339%.
In the case of `O[C@@H]1C[C@@H](c2nc(Cc3ccc(F)cc3Cl)no2)N(Cc2ccc(OC(F)(F)F)cc2)C1` it was inactive: -5.94%; in that of `CC(C)C(=O)NCCC1CCN(C(=O)Nc2cc(F)ccc2F)CC1`, inactive: 1.6%.
In the case of `CC(C)CN(Cc1cccnc1)C1CN(C(=O)NCc2ccc(F)cc2)C1` it was inactive: 3.42%.
For the molecule `O=C(O)CCc1cc2n(n1)CCCN(C(=O)c1ccc3n[nH]nc3c1)C2`, the “activity, negative = inhibition” value is inactive: -10.3%.
With `O=C(O)CCc1nc(C2CCOCC2)n[nH]1` the figure was inactive: -0.0925%.
With `CCN(CC)C(=O)C[C@@H]1CCNC[C@@H]1Cc1cc(-c2ccc(C(C)(C)C)cc2)on1` the figure was inactive: 3.9% [at 57.5 µM]; with `O[C@H]1CC[C@@H](Cc2cc(COc3ccccc3)on2)O[C@@H]1CNC1CCNCC1`, inactive: 30.5%.
For the molecule `O=C(Nc1ccccc1)Nc1ccc([C@@H](O)[C@H]2COCC(=O)N2Cc2cccnc2)cc1`, the “activity, negative = inhibition” value is inactive: -3.73% [at 57.5 µM].
In the case of `COc1ccc2c(c1)OCC(CNC(=O)c1noc3c1CCCC3)C2` (stereo not given) it was inactive: -14.1%.
Consider `COc1cc(SC)ccc1C(=O)N[C@H]1CCN2C(=O)N(c3ccc(OC(F)(F)F)cc3)C(=O)[C@@H]2C1`, for which the “activity, negative = inhibition” value is inactive: -1.29%.
With `CC[C@H]1CN(C(=O)C2CC2)CC[C@H]1CC(=O)N(C)CCC#N` the figure was inactive: 8.05% [at 57.5 µM]; with `O=C(Cn1cnnn1)N1CCc2ncnc(NC[C@H]3CCCO3)c2CC1`, inactive: 4.04%.
